Reference: publication PMC9728970
These are yes or no findings as the source states them, for the method shown. Binding seen in cells or lysates may run through a third protein. Some binding calls cover weakened binding; strength is not graded here. Tags and fused reporters may be left off the sequences shown.

Target: T1, HA-PRMT4 (UniProt Q86X55)
T1 sequence: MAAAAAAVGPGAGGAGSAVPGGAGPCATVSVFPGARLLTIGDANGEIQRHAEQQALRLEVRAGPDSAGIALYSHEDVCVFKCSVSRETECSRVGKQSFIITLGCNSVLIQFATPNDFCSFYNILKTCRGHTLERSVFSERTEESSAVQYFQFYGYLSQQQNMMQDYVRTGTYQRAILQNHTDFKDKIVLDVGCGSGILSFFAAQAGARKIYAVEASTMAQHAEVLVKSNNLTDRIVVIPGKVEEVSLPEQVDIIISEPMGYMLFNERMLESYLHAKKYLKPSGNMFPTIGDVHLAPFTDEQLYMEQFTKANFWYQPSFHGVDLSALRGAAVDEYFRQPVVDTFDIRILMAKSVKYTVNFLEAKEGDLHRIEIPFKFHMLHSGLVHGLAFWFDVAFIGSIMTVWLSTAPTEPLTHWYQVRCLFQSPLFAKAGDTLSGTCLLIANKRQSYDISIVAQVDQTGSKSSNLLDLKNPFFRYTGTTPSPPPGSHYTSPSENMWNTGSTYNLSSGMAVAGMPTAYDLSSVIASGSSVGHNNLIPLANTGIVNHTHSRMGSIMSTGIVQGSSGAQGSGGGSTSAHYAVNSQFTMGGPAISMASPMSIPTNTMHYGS
Experiment: co-IP; HA-tag IP from whole-cell lysate of HEK293T cells transfected with or without HA-PRMT2 or HA-PRMT4; immunoblot

- binding: binds
Substance: BRD4 in HEK293T lysate (from UniProt O60885 1-1362) (other; other documents disagree on this pair)
